# Data taken from article PMC8944987, “In Vivo Efficacy of SQ109 against Leishmania donovani, Trypanosoma spp. and Toxoplasma gondii and In Vitro Activity of SQ109 Metabolites” (Biomedicines, 2022).
# Legend:
# [1] = system: T. cruzi Dm28c tissue-culture derived trypomastigotes; assay: T. cruzi tissue culture trypomastigotes (TCT) assay; type: cell-based; settings: Trypanosoma cruzi, 24 h, 24 h treatment; Figure 2B; read-out: IC50, T. cruzi trypomastigotes (TCTs)
# [2] = system: T. cruzi Dm28c epimastigotes; assay: T. cruzi epimastigotes assay (resazurin); type: cell-based; settings: Trypanosoma cruzi; 72 h; Figure 2C; read-out: IC50, T. cruzi epimastigote growth inhibition (resazurin reduction)
# Method: The exponential growth phase of epimastigotes were treated with different concentrations of drugs or 0.1% DMSO as negative control and incubated for 3 days at 28 °C. The viability of parasites was quantified with resazurin as described in the T. brucei assay.
smiles,measurement,setting,value
O=C(Cn1ccnc1[N+](=O)[O-])NCc1ccccc1 [benznidazole],IC50,[1],59.7 µM
same,IC50,[2],3.25 µM
